# The supplement of paper PMC8728848
# The list shows a part of the results.
# Experiments:
# Assay in all cases: glycan array binding signal (z-score within array); higher = stronger binding
# Conditions in all cases: glycan notation: IUPAC condensed, linker removed
# [1] = target: Neu5Ac(a2-3)Gal(b1-4)GlcNAc(b1-2)[Neu5Ac(a2-3)Gal(b1-4)GlcNAc(b1-4)]Man(a1-3)[GlcNAc(b1-4)][Neu5Ac(a2-3)Gal(b1-4)GlcNAc(b1-4)Man(a1-6)]Man(b1-4)GlcNAc(b1-4)GlcNAc
# In short: (§1)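 Glycan array data were curated from 3228 arrays in the Consortium for Functional Glycomics database and kept only where the protein sequence was available. Glycan names were converted to IUPAC-condensed notation, and columns mapping to the same glycan were averaged. The binding signal is a within-array Z-score, averaged across arrays of the same protein sequence at different concentrations or buffers and across linkers. Negative Z-scores can be read as non-binding.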
# [2] = target: Neu5Ac(a2-3)Gal(b1-4)GlcNAc(b1-2)[Neu5Ac(a2-3)Gal(b1-4)GlcNAc(b1-6)]Man(a1-6)[Neu5Ac(a2-3)Gal(b1-4)GlcNAc(b1-2)Man(a1-3)]Man(b1-4)GlcNAc(b1-4)GlcNAc
# In short: as §1
# [3] = target: Neu5Ac(a2-3)Gal(b1-4)GlcNAc(b1-2)[Neu5Ac(a2-3)Gal(b1-4)GlcNAc(b1-6)]Man(a1-6)[Neu5Ac(a2-3)Gal(b1-4)GlcNAc(b1-2)Man(a1-3)][GlcNAc(b1-4)]Man(b1-4)GlcNAc(b1-4)GlcNAc
# In short: as §1
# [4] = target: Neu5Ac(a2-3)Gal(b1-4)GlcNAc(b1-3)Gal
# In short: as §1
# [5] = target: Neu5Ac(a2-3)Gal(b1-4)GlcNAc(b1-3)Gal(b1-3)GlcNAc
# In short: as §1
# [6] = target: Neu5Ac(a2-3)Gal(b1-4)GlcNAc(b1-3)Gal(b1-4)GlcNAc
# In short: as §1
# [7] = target: Neu5Ac(a2-3)Gal(b1-4)GlcNAc(b1-3)Gal(b1-4)GlcNAc(b1-2)Man(a1-3)[Neu5Ac(a2-3)Gal(b1-4)GlcNAc(b1-3)Gal(b1-4)GlcNAc(b1-2)Man(a1-6)]Man(b1-4)GlcNAc(b1-4)GlcNAc
# In short: as §1
# [8] = target: Neu5Ac(a2-3)Gal(b1-4)GlcNAc(b1-3)Gal(b1-4)GlcNAc(b1-3)Gal(b1-4)GlcNAc
# In short: as §1
# [9] = target: Neu5Ac(a2-3)Gal(b1-4)GlcNAc(b1-3)Gal(b1-4)GlcNAc(b1-3)Gal(b1-4)GlcNAc(b1-2)Man(a1-3)[Neu5Ac(a2-3)Gal(b1-4)GlcNAc(b1-3)Gal(b1-4)GlcNAc(b1-3)Gal(b1-4)GlcNAc(b1-2)Man(a1-6)]GalNAc
# In short: as §1
# [10] = target: Neu5Ac(a2-3)Gal(b1-4)GlcNAc(b1-3)Gal(b1-4)GlcNAc(b1-3)GalNAc
# In short: as §1
# [11] = target: Neu5Ac(a2-3)Gal(b1-4)GlcNAc(b1-3)Gal(b1-4)GlcNAc(b1-3)[Neu5Ac(a2-3)Gal(b1-4)GlcNAc(b1-3)Gal(b1-4)GlcNAc(b1-6)]GalNAc
# In short: as §1
# [12] = target: Neu5Ac(a2-3)Gal(b1-4)GlcNAc(b1-3)Gal(b1-4)GlcNAc(b1-6)[Gal(b1-3)]GalNAc
# In short: as §1
# [13] = target: Neu5Ac(a2-3)Gal(b1-4)GlcNAc(b1-3)Gal(b1-4)[Fuc(a1-3)]GlcNAc
# In short: as §1
# [14] = target: Neu5Ac(a2-3)Gal(b1-4)GlcNAc(b1-3)GalNAc
# In short: as §1
# [15] = target: Neu5Ac(a2-3)Gal(b1-4)GlcNAc(b1-3)[Neu5Ac(a2-3)Gal(b1-4)GlcNAc(b1-6)]GalNAc
# In short: as §1
# [16] = target: Neu5Ac(a2-3)Gal(b1-4)GlcNAc(b1-6)GalNAc
# In short: as §1
# [17] = target: Neu5Ac(a2-3)Gal(b1-4)GlcNAc(b1-6)[Gal(b1-3)]GalNAc
# In short: as §1
# [18] = target: Neu5Ac(a2-3)Gal(b1-4)GlcNAc(b1-6)[Neu5Ac(a2-3)Gal(b1-3)]GalNAc
# In short: as §1
# [19] = target: Neu5Ac(a2-3)Gal(b1-4)GlcNAc6S
# In short: as §1
# [20] = target: Neu5Ac(a2-3)Gal(b1-4)[Fuc(a1-3)]GlcNAc
# In short: as §1
# [21] = target: Neu5Ac(a2-3)Gal(b1-4)[Fuc(a1-3)]GlcNAc(b1-2)Man
# In short: as §1
# [22] = target: Neu5Ac(a2-3)Gal(b1-4)[Fuc(a1-3)]GlcNAc(b1-3)Gal
# In short: as §1
# [23] = target: Neu5Ac(a2-3)Gal(b1-4)[Fuc(a1-3)]GlcNAc(b1-3)Gal(b1-4)GlcNAc
# In short: as §1
# [24] = target: Neu5Ac(a2-3)Gal(b1-4)[Fuc(a1-3)]GlcNAc(b1-3)Gal(b1-4)[Fuc(a1-3)]GlcNAc(b1-3)Gal(b1-4)[Fuc(a1-3)]GlcNAc
# In short: as §1
# [25] = target: Neu5Ac(a2-3)Gal(b1-4)[Fuc(a1-3)]GlcNAc(b1-3)GalNAc
# In short: as §1
# [26] = target: Neu5Ac(a2-3)Gal(b1-4)[Fuc(a1-3)]GlcNAc(b1-6)[Gal(b1-3)]GalNAc
# In short: as §1
# [27] = target: Neu5Ac(a2-3)Gal(b1-4)[Fuc(a1-3)]GlcNAc(b1-6)[Neu5Ac(a2-3)Gal(b1-3)]GalNAc
# In short: as §1
# [28] = target: Neu5Ac(a2-3)Gal(b1-4)[Fuc(a1-3)]GlcNAc6S
# In short: as §1
# [29] = target: Neu5Ac(a2-3)Gal6S(b1-4)GlcNAc
# In short: as §1
# [30] = target: Neu5Ac(a2-3)Gal6S(b1-4)[Fuc(a1-3)]GlcNAc
# In short: as §1
# Neu5Ac(a2-3)GalNAc = target: Neu5Ac(a2-3)GalNAc
# In short: as §1
# [31] = target: Neu5Ac(a2-3)GalNAc(b1-4)GlcNAc
# In short: as §1
# [32] = target: Neu5Ac(a2-3)[GalNAc(b1-4)]Gal(b1-4)Glc
# In short: as §1
# [33] = target: Neu5Ac(a2-3)[GalNAc(b1-4)]Gal(b1-4)GlcNAc
# In short: as §1
# [34] = target: Neu5Ac(a2-3)[GalNAc(b1-4)]Gal(b1-4)GlcNAc(b1-3)GalNAc
# In short: as §1
# [35] = target: Neu5Ac(a2-3)[Neu5Ac(a2-6)]GalNAc
# In short: as §1
# Neu5Ac(a2-6)Gal = target: Neu5Ac(a2-6)Gal
# In short: as §1
binder,measurement,setting,value
"SfaEH (Escherichia coli), Q1RDG5 (protein) LLCRNNQTGQVFNSGDTSFRVNVSPVVQYDKSISVLDLSQLVSCQNEDSTGQNYDYLKILKGSGFSPALDTKTYGRLDFTSRPTGYARQLPLQFDLQVTEAFYQYGVWKPFPAKLYLYPAPGVFGKVINNGDLLATLYVNKFSTKGQEAGERNFTWRFYATNDVYIQTGTCRVSSNNVKVDLPSYPGGPVTVPLTVRCDQTQSVSYTLSGPVTGSGNTVFANTAASGSGGVGIQLSDNVGPVPAGQPRSLGQVGSSPVSLGLKASYALTGQASPTPGAVQSVINVTFSYN",glycan array binding signal (z-score),[1],-0.096
same,glycan array binding signal (z-score),[2],0.024
same,glycan array binding signal (z-score),[3],-0.828
same,glycan array binding signal (z-score),[4],1.05
same,glycan array binding signal (z-score),[5],-0.362
same,glycan array binding signal (z-score),[6],-0.81
same,glycan array binding signal (z-score),[7],0.71
same,glycan array binding signal (z-score),[8],7.11
same,glycan array binding signal (z-score),[9],0.267
same,glycan array binding signal (z-score),[10],1.1
same,glycan array binding signal (z-score),[11],0.688
same,glycan array binding signal (z-score),[12],-0.13
same,glycan array binding signal (z-score),[13],-0.494
same,glycan array binding signal (z-score),[14],-0.56
same,glycan array binding signal (z-score),[15],-0.154
same,glycan array binding signal (z-score),[16],0.768
same,glycan array binding signal (z-score),[17],2.32
same,glycan array binding signal (z-score),[18],-0.888
same,glycan array binding signal (z-score),[19],-0.835
same,glycan array binding signal (z-score),[20],-0.815
same,glycan array binding signal (z-score),[21],0.681
same,glycan array binding signal (z-score),[22],-0.014
same,glycan array binding signal (z-score),[23],0.454
same,glycan array binding signal (z-score),[24],0.9
same,glycan array binding signal (z-score),[25],0.454
same,glycan array binding signal (z-score),[26],-0.654
same,glycan array binding signal (z-score),[27],-0.281
same,glycan array binding signal (z-score),[28],0.695
same,glycan array binding signal (z-score),[29],-0.797
same,glycan array binding signal (z-score),[30],-0.558
same,glycan array binding signal (z-score),Neu5Ac(a2-3)GalNAc,-0.756
same,glycan array binding signal (z-score),[31],0.222
same,glycan array binding signal (z-score),[32],-0.002
same,glycan array binding signal (z-score),[33],0.118
same,glycan array binding signal (z-score),[34],-0.972
same,glycan array binding signal (z-score),[35],3.69
same,glycan array binding signal (z-score),Neu5Ac(a2-6)Gal,0.728
